Data from paper PMC4879264.
These are yes or no findings as the source states them, for the method shown. In cells and extracts the contact can be indirect. Some results given as binding are weak or reduced against the parent protein; the word gives no strength.

Amino acid sequences for entries named in this document (tags omitted).
UniProt P45481: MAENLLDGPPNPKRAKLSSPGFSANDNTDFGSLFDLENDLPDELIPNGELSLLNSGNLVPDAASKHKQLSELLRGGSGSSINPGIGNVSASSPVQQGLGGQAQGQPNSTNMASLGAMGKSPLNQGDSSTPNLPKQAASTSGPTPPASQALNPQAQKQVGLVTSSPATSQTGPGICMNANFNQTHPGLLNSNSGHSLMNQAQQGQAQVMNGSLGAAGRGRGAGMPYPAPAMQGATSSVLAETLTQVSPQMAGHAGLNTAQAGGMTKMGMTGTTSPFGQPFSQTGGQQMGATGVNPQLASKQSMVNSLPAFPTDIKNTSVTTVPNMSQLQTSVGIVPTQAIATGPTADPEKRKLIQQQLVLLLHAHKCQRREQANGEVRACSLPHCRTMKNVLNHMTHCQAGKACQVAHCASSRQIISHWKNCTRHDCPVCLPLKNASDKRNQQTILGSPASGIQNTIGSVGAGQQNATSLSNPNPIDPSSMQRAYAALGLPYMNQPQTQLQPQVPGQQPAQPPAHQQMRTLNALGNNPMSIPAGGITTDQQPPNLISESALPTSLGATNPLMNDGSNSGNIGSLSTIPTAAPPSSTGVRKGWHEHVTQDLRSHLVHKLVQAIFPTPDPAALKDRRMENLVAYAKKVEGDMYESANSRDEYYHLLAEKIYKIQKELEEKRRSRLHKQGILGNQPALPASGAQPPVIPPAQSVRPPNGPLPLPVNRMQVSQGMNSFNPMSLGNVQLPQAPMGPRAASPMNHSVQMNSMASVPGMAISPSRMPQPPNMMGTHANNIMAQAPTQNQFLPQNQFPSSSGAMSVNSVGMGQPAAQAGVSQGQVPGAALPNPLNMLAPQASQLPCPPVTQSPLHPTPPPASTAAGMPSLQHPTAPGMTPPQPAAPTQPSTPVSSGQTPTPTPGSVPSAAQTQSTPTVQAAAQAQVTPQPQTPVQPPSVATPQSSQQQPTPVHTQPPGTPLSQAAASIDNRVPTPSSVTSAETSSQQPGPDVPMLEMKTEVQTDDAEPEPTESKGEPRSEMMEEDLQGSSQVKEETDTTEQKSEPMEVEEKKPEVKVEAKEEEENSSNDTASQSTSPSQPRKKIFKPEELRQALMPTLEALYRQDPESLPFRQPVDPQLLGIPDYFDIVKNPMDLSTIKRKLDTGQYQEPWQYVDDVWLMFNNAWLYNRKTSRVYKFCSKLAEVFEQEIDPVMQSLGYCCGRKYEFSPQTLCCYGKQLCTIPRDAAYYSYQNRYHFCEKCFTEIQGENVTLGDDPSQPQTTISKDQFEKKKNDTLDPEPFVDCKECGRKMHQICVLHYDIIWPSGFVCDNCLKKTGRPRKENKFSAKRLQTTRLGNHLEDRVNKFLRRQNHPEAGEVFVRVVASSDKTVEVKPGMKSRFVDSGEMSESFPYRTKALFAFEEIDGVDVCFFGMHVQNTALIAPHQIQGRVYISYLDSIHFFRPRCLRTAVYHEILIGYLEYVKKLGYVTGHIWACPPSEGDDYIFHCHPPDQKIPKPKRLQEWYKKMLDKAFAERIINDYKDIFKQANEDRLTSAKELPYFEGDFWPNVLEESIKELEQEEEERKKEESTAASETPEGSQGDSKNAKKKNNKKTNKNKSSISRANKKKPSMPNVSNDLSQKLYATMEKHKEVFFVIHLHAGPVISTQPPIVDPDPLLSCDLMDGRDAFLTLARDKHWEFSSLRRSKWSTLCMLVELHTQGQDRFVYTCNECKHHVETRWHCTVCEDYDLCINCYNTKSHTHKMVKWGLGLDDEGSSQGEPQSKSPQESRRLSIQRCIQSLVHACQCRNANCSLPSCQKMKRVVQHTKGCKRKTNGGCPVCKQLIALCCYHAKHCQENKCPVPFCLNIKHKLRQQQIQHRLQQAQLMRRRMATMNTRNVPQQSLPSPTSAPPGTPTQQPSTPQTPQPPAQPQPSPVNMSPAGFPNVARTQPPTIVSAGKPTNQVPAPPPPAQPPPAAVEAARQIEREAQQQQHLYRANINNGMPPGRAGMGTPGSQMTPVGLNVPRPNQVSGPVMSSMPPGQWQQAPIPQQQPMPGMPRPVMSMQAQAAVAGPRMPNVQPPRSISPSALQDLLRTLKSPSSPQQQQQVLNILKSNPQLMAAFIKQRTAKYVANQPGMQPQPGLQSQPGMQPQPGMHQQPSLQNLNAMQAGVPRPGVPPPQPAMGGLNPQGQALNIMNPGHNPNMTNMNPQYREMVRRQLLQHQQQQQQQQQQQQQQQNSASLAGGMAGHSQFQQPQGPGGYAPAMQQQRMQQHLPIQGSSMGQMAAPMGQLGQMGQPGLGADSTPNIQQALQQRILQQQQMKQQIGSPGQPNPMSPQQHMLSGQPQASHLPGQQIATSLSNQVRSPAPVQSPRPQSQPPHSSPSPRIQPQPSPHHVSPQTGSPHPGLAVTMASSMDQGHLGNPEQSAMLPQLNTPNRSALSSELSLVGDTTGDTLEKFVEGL

T1: Nrf2 (NF-E2-related factor-2) (mouse (endogenous in Raw264.7)) (UniProt Q60795)
T1 sequence: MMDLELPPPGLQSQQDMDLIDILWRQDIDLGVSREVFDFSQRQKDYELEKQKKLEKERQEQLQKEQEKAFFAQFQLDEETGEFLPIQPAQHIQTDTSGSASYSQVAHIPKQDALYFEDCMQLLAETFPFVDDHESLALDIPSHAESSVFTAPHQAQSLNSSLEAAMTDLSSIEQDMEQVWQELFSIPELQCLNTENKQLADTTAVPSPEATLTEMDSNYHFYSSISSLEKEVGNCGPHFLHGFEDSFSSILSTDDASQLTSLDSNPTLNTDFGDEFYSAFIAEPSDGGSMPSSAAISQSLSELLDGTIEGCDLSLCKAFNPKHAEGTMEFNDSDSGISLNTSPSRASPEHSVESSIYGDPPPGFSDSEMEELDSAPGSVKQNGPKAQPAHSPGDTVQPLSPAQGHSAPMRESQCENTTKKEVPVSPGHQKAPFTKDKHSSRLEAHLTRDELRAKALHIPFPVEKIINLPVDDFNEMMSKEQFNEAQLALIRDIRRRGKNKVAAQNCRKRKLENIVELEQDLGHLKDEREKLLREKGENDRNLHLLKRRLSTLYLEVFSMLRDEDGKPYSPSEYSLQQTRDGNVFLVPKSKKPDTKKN

B1: MED16 (protein, UniProt Q6PGF3 1-828)
chain: MDLAYVCEWEKWAKSTYCPSLPLACAWSCRNLIAFTTDLRNDDQDLTHMIHILDTEHPWEVHSVSSGHSEAITCLEWDQSGSRLLSADADGQIKCWSMADHLANSWESSVGSQVEGDPIVALSWLHNGVKLALHVEKSGASSFGEKFSRVKFSPSLTLFGGKPMEGWIAVTVSGLVTVSLLKPSGQVLTSTESLCRLRGRVALADIAFTGGGNIVVAAADGSSASPVKFYKVCVSVVSEKCRIDTEILPSLFMRCTTDPNRKDRFPAITHLKFLARDMSEQVLLCASSQTSSLVECWSLRKEGLPVNNIFQQISPVVGDKQPMILKWRILSATNDLDRVSAVALPKLPISLTNTDLKVASDTQFYPGLGLALAFQDGSVHMVHRLSLQTMAVFYSSAPRSLDEPALKRPRTTCPAVHFKAMQLSWTSLALVGIDNHGKLSMLRISPSLGHPLEPKLALQHLLFLLEYCMVTGYDWWDILLHVQPGMVQSLVERLHEEYTRQKPALQQVLSTRILAMKASLCKLSPCTVARVCDYHTKLFLMAITSTLKSLLRPHFLNTPDKSPGDRLAEICAKITDVDIDKVMINLKTEEFVLDMNTLQALQQLLQWVGDFVLYLLVSLPNQGSPLRPGHSFLRDGTSLGMLRELMVVIRIWGLLKPSCLPVYTATSDTQDSMSLLFRLLTKLWICCRDEGAASEPDEGLVDECCLLPSQLLVPNLDWLPASDGLVSRLQPKQPLRLRFGRAPTLPSSTSTLQLDGLTRAPGQPKIDHLRRLHLGAYPTEECKACTRCGCVTMLKSPNKTTAVTQWEQRWIKNCLCGGLWRRVPLSCS
B2: MED24 (protein, UniProt Q99K74 1-987)
chain: MKVVNLKQAILQAWKERWSDYQWAINMKKFFPKGATWDILNLAEALLEQAMIGPSPNPLILSYLKYAISSQMVSCSSVLTAISKFDDFSRDLCVQALLDIMDMFCDRLSCHGKAEECIGLCRALLSALHWLLRCTAASAERLQEGLEAGTPAPGEKQLALCLQCLEKTLSSTKNRALLHIAKLEEASSWTAIEHSLLKLGEILANLSNPQLRSQAERCGTLIRSIPSMLSVHSEQLHKTGFPTIHALILLEGTMNLTGEMQPLVEQLMMVKRMQHIPTPLFVLEIWKACFVGLIESPEGTQELKWTAFTYLKIPQVLVKLKKYFHGEKDFTEDVNCAFEFLLKLTPLLDKADQRCNCDCTNFLLQECNKQGLLSEVNFASLVGKRTADRDPQLKSSENANIQPNPGLILRAEPTVTNILKTMDADHSKSPEGLLGVLGHMLSGKSLDLLLAAAAATGKLKSFARKFINLNEFTTHGSGESTKTASVRALLFDISFLMLCHVAQTYGSEVILSESSSGEEVPFFETWMQTCMPEEGKILNPDHPCFRPDSTKVESLVALLNNSSEMKLVQMKWHEACLSISAAILEILNAWENGVLAFESIQKITDNIKGKVCSLAVCAVAWLVAHVRMLGLDEREKSLQMIRQLAGPLYSENTLQFYNERVVIMNSILEHMCADVLQQTATQIKFPSTGVDTMPYWNLLPPKRPIKEVLTDIFAKVLEKGWVDSRSIHILDTLLHMGGVYWFCNNLIKELLKETRKEHTLRAVQLLYSIFCLDMQQVTLVLLGHILPGLLTDSSKWHSLMDPPGTALAKLAVWCALSSYSSHKGQASSRQKKRHREDIEDYVSLFPVEDMQPSKLMRLLSSSDDDANILSSPTDRSMNSSLSASQLHTVNMRDPLNRVLANLFLLISSILGSRTAGPHTQFVQWFMEECVGCLEQDSRGSILQFMPFTTVSELVKVSAMSSPKVVLAITDLSLPLGRQVAAKAIAAL

What follows are molecules tested against T1, Nrf2 (NF-E2-related factor-2) (mouse (endogenous in Raw264.7)) (assay: co-IP; Raw264.7 cells treated 4 h with 100 uM DEM with or without 20 ng/ml LPS; cells crosslinked with 0.5 mM DTME and 0.5 mM DSP, lysed in RIPA buffer; immunoprecipitation with an Nrf2-specific antibody, immunoblot of the precipitate).

Row | binding | Molecule
1 | binds | CBP (from UniProt P45481 1-2441)
2 | binds | B1
3 | binds | B2
